Most values lie at the floor of the assay. Slopes are relative: functional sequences can read slightly below zero.
These substances were tested on Saccharomyces cerevisiae PS128 hsf1 delta, HSF1(1-493) fusion (assay: growth estimate (transactivation domain function in HSF1 fusion, heat-shock survival) (a.u. (slope of normalised read count over time)); higher = stronger growth at 37°C, i.e. more transactivation activity). Conditions: library: random library.
Procedure: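 Random 60-nt DNA library encoding peptides of up to 20 aa, fused to the C-terminus of yeast HSF1 residues 1-493 (C-terminal TAD deleted) and expressed from the native HSF1 promoter on a CEN plasmid in hsf1-deleted S. cerevisiae PS128. Cells were selected at 37°C on -trp 5-FOA plates for 0, 2, 4, 6 and 8 days and amplicons were sequenced. Growth estimate is the slope of a robust linear fit of total-sum-normalised read counts (normalised to the first time point) over time, using at least 2 replicates. Sequences are classed functional (TAD activity) above a threshold of -0.13, set from stop-codon control sequences.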

**Q.** For LVSICSVYQLRGYPWGNQSR, which growth estimate is on record?
**A.** Its growth estimate is < -0.25.

**Q.** Which growth estimate does the source give for ITRGP here?
**A.** Its growth estimate is < -0.25.

**Q.** For AVISYQHRSTAIRINGTSGP, which growth estimate is on record?
**A.** Its growth estimate is < -0.25.

**Q.** Which growth estimate does the source give for CCFAY here?
**A.** Its growth estimate is < -0.25.

**Q.** With VGLQGRQGPSIT as the substance, how does the growth estimate read?
**A.** Its growth estimate is < -0.25.

**Q.** With VSIRNDGFS as the substance, how does the growth estimate read?
**A.** Its growth estimate is < -0.25.

**Q.** For RWIELAIRNTHVAGHSSGAL, which growth estimate is on record?
**A.** The growth estimate was < -0.25.

**Q.** Which growth estimate does the source give for VRYCNCRHPRKVHTPVER here?
**A.** The growth estimate was < -0.25.

**Q.** Which growth estimate does the source give for MRVETSAYPYDARHNQAVAL here?
**A.** The growth estimate was -0.25.

**Q.** Which growth estimate does the source give for CRR here?
**A.** The growth estimate was < -0.25.

**Q.** With KYDFM as the substance, how does the growth estimate read?
**A.** The growth estimate was < -0.25.

**Q.** Which growth estimate does the source give for MAGSIGAAGST here?
**A.** The growth estimate was < -0.25.

**Q.** With GGPWPASRTGAATAAVPLHA as the substance, how does the growth estimate read?
**A.** The growth estimate was < -0.25.

**Q.** With LWGVLWGSVRWQRP as the substance, how does the growth estimate read?
**A.** The growth estimate was < -0.25.

**Q.** For LNICGEQKDGVDWGRGKSRR, which growth estimate is on record?
**A.** Its growth estimate is < -0.25.

**Q.** RSGPRDGRKLRRNSAQSDPS was tested. Which growth estimate did it give?
**A.** The growth estimate was < -0.25.

**Q.** How did the growth estimate turn out when TDASAITSLGRCVAWRGGVL was run?
**A.** Its growth estimate is < -0.25.

**Q.** With RKC as the substance, how does the growth estimate read?
**A.** Its growth estimate is < -0.25.

**Q.** For MTSRVSTRGNLATKG, which growth estimate is on record?
**A.** Its growth estimate is < -0.25.

**Q.** With TYYTII as the substance, how does the growth estimate read?
**A.** Its growth estimate is < -0.25.

**Q.** VPLTLFTREHDWLRLMLSQG was tested. Which growth estimate did it give?
**A.** Its growth estimate is < -0.25.

**Q.** QYLSIPPRTDSMS was tested. Which growth estimate did it give?
**A.** Its growth estimate is < -0.25.

**Q.** With GGQIIC as the substance, how does the growth estimate read?
**A.** The growth estimate was < -0.25.

**Q.** For RLREGVKRANERGVFAAANV, which growth estimate is on record?
**A.** Its growth estimate is < -0.25.

**Q.** How did the growth estimate turn out when LRTGSEEDYACGDAIVGTMA was run?
**A.** The growth estimate was < -0.25.

**Q.** Which growth estimate does the source give for VSTTIGYKCLNGCTVYPGCS here?
**A.** The growth estimate was < -0.25.

**Q.** How did the growth estimate turn out when GMKVSVLRVGAGKLSSLMKS was run?
**A.** The growth estimate was < -0.25.

**Q.** MHA was tested. Which growth estimate did it give?
**A.** Its growth estimate is < -0.25.

**Q.** How did the growth estimate turn out when VLGGTAAMGPRRGRA was run?
**A.** The growth estimate was < -0.25.

**Q.** With RVGLTVKRLPRSLA as the substance, how does the growth estimate read?
**A.** Its growth estimate is -0.25.

**Q.** Which growth estimate does the source give for YNTIESLAAQSSFVFALYVL here?
**A.** Its growth estimate is < -0.25.

**Q.** For HRLGGHAVKVGPPSRVGKFL, which growth estimate is on record?
**A.** Its growth estimate is < -0.25.

**Q.** Which growth estimate does the source give for LFYGPMVCLDRAPFLPMQRQ here?
**A.** Its growth estimate is < -0.25.

**Q.** For QESNILTRLHQLCFSDKTQI, which growth estimate is on record?
**A.** Its growth estimate is < -0.253.

**Q.** For TETVGVEPMCKGMERIRVCC, which growth estimate is on record?
**A.** The growth estimate was < -0.25.

**Q.** How did the growth estimate turn out when RELEIYLCQ was run?
**A.** The growth estimate was < -0.25.

**Q.** KKVRSSKTHSLAPLNVTQTT was tested. Which growth estimate did it give?
**A.** Its growth estimate is < -0.25.

**Q.** For GRRNRGSCGTQLWEPSRSAR, which growth estimate is on record?
**A.** The growth estimate was < -0.25.

**Q.** With SVPCLASCGVWSFCRFCRAV as the substance, how does the growth estimate read?
**A.** The growth estimate was -0.248.

**Q.** For GVEHTLDARRL, which growth estimate is on record?
**A.** Its growth estimate is < -0.25.

**Q.** CLCE was tested. Which growth estimate did it give?
**A.** The growth estimate was < -0.25.

**Q.** Which growth estimate does the source give for LGVYTVLGERLTDRPYSTFG here?
**A.** Its growth estimate is < -0.25.

**Q.** TMAVIPLRR was tested. Which growth estimate did it give?
**A.** Its growth estimate is < -0.25.

**Q.** With YIRGCAIWSYPRPGLCTSLD as the substance, how does the growth estimate read?
**A.** The growth estimate was < -0.25.

**Q.** How did the growth estimate turn out when EQLIQRCRALITPSALQSLE was run?
**A.** The growth estimate was < -0.25.

**Q.** For LCQTYAIASLHSAASGLY, which growth estimate is on record?
**A.** Its growth estimate is < -0.25.

**Q.** With ANASRSKRDNYVRTSLRTFV as the substance, how does the growth estimate read?
**A.** The growth estimate was < -0.25.

**Q.** With QTG as the substance, how does the growth estimate read?
**A.** Its growth estimate is < -0.25.

**Q.** With SRVRLRGCGNTASRSGHDR as the substance, how does the growth estimate read?
**A.** The growth estimate was -0.172.

**Q.** For SPRGSETNCIPNIVVGGSRR, which growth estimate is on record?
**A.** The growth estimate was < -0.25.

**Q.** With FPYMRLSCTARTIFSHLTKQ as the substance, how does the growth estimate read?
**A.** Its growth estimate is < -0.25.

**Q.** With VRTHGPI as the substance, how does the growth estimate read?
**A.** The growth estimate was < -0.25.

**Q.** EVNSSLDVTREIAPDCRENR was tested. Which growth estimate did it give?
**A.** The growth estimate was < -0.25.

**Q.** For ITI, which growth estimate is on record?
**A.** Its growth estimate is < -0.25.

**Q.** For WTILKVRWSDSYYGADKAIG, which growth estimate is on record?
**A.** Its growth estimate is < -0.25.

**Q.** QHPYEIWRTL was tested. Which growth estimate did it give?
**A.** The growth estimate was < -0.25.

**Q.** For TSGDWASY, which growth estimate is on record?
**A.** The growth estimate was < -0.25.

**Q.** With NGGLSVGRKWYR as the substance, how does the growth estimate read?
**A.** Its growth estimate is -0.248.

**Q.** Which growth estimate does the source give for KNFMVFFFSNPGGFCTAIDW here?
**A.** The growth estimate was < -0.25.

**Q.** Which growth estimate does the source give for ANRFISSY here?
**A.** Its growth estimate is < -0.25.

**Q.** Which growth estimate does the source give for GRGKTLRSVAG here?
**A.** The growth estimate was < -0.25.

**Q.** For GWLRFIVSRLMSSMVRSHRL, which growth estimate is on record?
**A.** The growth estimate was < -0.25.

**Q.** Which growth estimate does the source give for LSPS here?
**A.** Its growth estimate is < -0.25.

**Q.** Which growth estimate does the source give for YYRV here?
**A.** Its growth estimate is -0.205.

**Q.** FLKLLGIKRSFL was tested. Which growth estimate did it give?
**A.** The growth estimate was < -0.25.

**Q.** For TGMESALFYVVLNTSFARIW, which growth estimate is on record?
**A.** The growth estimate was < -0.25.

**Q.** With LHRTCSASWSGFMFKASTRV as the substance, how does the growth estimate read?
**A.** The growth estimate was < -0.25.

**Q.** With RGAPRPA as the substance, how does the growth estimate read?
**A.** The growth estimate was < -0.25.

**Q.** For WDYYGSGGVYVVGTYEDVLI, which growth estimate is on record?
**A.** Its growth estimate is < -0.25.

**Q.** For TYSLLFASLSVPYLRGTKGR, which growth estimate is on record?
**A.** Its growth estimate is < -0.25.

**Q.** Which growth estimate does the source give for FSQLAPESSELNHGK here?
**A.** The growth estimate was < -0.25.

**Q.** MDST was tested. Which growth estimate did it give?
**A.** The growth estimate was < -0.25.

**Q.** How did the growth estimate turn out when SERTTSLSGDGSGIGTRVTG was run?
**A.** The growth estimate was < -0.25.

**Q.** With PIDNACLFSSLCMTMKSLAA as the substance, how does the growth estimate read?
**A.** Its growth estimate is -0.181.

**Q.** How did the growth estimate turn out when STNRLCSLLEYTFKVVRSVT was run?
**A.** The growth estimate was < -0.25.

**Q.** How did the growth estimate turn out when SMCWARG was run?
**A.** Its growth estimate is < -0.25.

**Q.** With VVLMWNNVPQCA as the substance, how does the growth estimate read?
**A.** The growth estimate was < -0.25.

**Q.** With RSIPMGPRCITGNE as the substance, how does the growth estimate read?
**A.** Its growth estimate is -0.186.

**Q.** NDLDIK was tested. Which growth estimate did it give?
**A.** The growth estimate was < -0.25.

**Q.** With QLYIRSAPGVLAKSSYLRQP as the substance, how does the growth estimate read?
**A.** Its growth estimate is < -0.25.

— the supplement of paper PMC5949888
